No constants are given. Whether binding was seen depends on the method and setting. Some results given as binding are weak or reduced against the parent protein; the word gives no strength.
T1: Sis1_(1–81), J-domain of Sis1 (residues 1–81) (S. cerevisiae) (UniProt P25294)
T1 sequence: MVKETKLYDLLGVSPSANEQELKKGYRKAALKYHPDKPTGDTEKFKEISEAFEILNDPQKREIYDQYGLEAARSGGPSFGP


Target: T1, Sis1_(1–81), J-domain of Sis1 (residues 1–81) (S. cerevisiae)
Assay: NMR titration; 1H-15N HSQC of 15N-Sis1(1-81) (1 mM by the legend, 0.5 mM by the methods) free and with 1, 2 and 4 mM GPTIEEVD (1:4 for CSP); 25 mM Tris-HCl pH 7.5, 200 mM NaCl, 10% D2O, 298 K; fast exchange; both purified

binding | Binder
binds weakly | GPTIEEVD (also called Ssa1-EEVD; source: synthetic peptide (GenOne Biotechnologies, Rio de Janeiro)) [GPTIEEVD peptide (EEVD peptide, C-terminal motif of HSP70/Ssa1)]
no binding | Sis1_(1–81), J-domain of Sis1 (residues 1–81) (domain or fragment, UniProt P25294 1-81) MVKETKLYDLLGVSPSANEQELKKGYRKAALKYHPDKPTGDTEKFKEISEAFEILNDPQKREIYDQYGLEAARSGGPSFGP

From paper PMC11722011, “NMR Studies on the Structure of Yeast Sis1 and the Dynamics of Its Interaction with Ssa1-EEVD” (Molecules, 2024)
